# These are yes or no findings as the source states them, for the method shown. In cells and extracts the contact can be indirect. Some entries that bind do so weakly or less than the wild type. For part of these data: Tags and fused reporters may be left off the sequences shown.
# Protein sequences, listed by entry. Tags and fused reporters are not part of them. Residues count along the entry.
# UniProt P43220, residues 24-463: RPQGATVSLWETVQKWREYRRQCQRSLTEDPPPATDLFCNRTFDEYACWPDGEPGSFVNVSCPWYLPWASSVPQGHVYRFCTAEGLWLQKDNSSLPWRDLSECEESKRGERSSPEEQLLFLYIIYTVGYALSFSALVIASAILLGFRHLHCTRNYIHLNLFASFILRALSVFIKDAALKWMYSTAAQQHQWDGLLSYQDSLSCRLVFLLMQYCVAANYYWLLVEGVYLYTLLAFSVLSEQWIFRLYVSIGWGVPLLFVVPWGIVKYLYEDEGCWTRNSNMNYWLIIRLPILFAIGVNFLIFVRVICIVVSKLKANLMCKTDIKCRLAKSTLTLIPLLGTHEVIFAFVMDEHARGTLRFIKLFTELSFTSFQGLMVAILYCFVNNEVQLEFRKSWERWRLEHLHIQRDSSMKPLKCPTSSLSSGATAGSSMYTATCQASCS
# UniProt O35659, residues 22-463: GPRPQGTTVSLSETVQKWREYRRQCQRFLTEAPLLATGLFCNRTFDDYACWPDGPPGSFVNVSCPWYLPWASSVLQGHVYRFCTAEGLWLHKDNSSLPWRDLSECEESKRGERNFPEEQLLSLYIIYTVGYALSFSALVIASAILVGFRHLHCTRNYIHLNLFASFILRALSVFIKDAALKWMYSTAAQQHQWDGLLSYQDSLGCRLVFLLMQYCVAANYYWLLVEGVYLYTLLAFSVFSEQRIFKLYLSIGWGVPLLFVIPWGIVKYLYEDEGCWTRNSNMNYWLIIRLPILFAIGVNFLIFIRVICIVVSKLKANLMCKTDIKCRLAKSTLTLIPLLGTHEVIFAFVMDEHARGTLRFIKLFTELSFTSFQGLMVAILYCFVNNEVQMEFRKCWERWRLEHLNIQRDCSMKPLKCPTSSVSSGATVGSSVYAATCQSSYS
# UniProt P0C6C0: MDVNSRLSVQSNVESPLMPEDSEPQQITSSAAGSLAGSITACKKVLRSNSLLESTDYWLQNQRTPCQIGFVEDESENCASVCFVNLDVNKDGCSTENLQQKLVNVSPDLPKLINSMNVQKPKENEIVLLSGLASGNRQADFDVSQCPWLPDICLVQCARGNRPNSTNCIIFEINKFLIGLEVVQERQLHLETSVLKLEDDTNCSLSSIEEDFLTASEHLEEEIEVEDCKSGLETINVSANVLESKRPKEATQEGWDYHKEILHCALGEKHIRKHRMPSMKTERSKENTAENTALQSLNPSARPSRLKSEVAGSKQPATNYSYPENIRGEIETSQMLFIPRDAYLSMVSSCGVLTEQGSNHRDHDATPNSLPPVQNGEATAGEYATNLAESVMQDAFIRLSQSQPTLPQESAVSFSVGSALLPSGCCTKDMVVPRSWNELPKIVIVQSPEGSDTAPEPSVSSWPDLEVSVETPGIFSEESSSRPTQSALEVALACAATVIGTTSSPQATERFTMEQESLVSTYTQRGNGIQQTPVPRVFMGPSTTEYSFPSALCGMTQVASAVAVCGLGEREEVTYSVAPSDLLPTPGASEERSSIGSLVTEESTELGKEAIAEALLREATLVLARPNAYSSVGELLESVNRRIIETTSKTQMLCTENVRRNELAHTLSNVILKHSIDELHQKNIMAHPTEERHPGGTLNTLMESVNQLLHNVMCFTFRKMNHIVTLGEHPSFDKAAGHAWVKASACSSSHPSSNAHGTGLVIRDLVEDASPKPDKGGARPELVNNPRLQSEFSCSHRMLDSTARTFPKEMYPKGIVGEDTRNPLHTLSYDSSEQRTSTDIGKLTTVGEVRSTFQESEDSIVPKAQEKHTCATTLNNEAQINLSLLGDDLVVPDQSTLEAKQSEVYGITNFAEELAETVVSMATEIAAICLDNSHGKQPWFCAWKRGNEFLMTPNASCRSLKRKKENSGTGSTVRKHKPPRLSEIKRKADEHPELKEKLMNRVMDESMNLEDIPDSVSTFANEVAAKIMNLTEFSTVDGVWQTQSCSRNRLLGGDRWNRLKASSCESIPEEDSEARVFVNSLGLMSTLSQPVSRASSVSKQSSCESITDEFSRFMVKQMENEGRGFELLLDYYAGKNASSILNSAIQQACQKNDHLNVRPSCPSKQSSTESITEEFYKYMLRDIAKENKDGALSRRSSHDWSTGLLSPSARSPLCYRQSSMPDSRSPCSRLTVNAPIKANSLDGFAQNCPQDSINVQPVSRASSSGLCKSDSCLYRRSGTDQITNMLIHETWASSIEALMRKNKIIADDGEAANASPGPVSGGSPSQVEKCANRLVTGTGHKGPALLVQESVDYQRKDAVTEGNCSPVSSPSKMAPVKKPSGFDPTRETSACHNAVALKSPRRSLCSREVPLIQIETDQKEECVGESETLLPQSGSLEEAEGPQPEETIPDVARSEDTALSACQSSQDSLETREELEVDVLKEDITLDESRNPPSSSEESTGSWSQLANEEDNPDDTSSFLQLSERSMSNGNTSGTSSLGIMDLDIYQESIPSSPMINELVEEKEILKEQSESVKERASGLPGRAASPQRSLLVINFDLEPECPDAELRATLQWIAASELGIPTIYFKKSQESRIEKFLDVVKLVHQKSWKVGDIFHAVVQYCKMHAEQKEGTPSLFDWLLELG
# UniProt O95292: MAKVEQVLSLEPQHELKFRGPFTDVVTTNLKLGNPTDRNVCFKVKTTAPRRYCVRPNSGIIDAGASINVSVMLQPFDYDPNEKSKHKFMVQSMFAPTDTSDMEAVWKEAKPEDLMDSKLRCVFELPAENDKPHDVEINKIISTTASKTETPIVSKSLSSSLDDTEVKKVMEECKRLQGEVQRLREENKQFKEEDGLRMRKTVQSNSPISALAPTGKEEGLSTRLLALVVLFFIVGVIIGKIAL
# UniProt Q9Z269: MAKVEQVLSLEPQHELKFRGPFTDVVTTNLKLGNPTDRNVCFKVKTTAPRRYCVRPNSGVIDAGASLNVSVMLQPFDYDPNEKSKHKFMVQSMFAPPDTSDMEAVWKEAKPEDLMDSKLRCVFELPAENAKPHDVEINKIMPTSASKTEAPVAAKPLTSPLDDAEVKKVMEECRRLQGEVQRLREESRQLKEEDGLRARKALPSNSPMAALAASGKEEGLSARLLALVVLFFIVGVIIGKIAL
# UniProt Q9QY76: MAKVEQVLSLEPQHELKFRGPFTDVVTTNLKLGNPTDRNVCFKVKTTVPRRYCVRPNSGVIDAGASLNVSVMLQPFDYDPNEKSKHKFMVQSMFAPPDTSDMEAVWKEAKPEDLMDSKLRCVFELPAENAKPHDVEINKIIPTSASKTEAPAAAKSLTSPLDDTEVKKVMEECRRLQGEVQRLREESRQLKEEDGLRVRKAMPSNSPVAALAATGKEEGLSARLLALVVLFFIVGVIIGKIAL
# Columns and labels:
# [1] = target: T1, SNAP/FLAG-tagged human GIPR (human) (UniProt P48546); test: co-IP; anti-FLAG M2 magnetic beads, 1 hour at 4 °C, on lysates of INS-1 832/3 SNAP/FLAG-hGLP-1R or SNAP/FLAG-hGIPR cells treated with vehicle, 100 nM exendin-4 for 5 minutes (also a panel of GLP-1RAs; also with dominant negative dynamin 1/2 K44A) or 100 nM GIP; western blot
# T1 sequence: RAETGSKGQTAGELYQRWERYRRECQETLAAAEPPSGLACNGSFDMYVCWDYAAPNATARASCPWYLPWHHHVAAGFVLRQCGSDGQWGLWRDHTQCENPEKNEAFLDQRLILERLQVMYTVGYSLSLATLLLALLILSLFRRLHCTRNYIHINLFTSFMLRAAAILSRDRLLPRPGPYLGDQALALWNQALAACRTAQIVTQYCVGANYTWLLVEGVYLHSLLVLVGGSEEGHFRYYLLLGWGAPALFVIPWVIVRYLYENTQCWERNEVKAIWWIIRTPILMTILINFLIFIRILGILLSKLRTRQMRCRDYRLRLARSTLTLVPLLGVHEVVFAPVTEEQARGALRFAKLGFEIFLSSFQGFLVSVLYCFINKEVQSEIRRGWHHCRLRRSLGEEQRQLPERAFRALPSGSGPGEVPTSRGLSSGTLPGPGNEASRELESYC
# [2] = target: SNAP/FLAG-hGLP-1R-NLuc (human) (UniProt P43220); test: FRET or BRET; NanoBRET in living INS-1 832/3 cells co-transfected with Venus-VAPB and GLP-1R-NanoLuc; 37 °C; 1 µM exendin-4 or exendin-F1, read for 30 minutes; ratio 535/460 nm, vehicle-subtracted
# [3] = target: endogenous GLP-1R (human islets) (human (endogenous in primary islets)) (UniProt P43220); test: proximity ligation; NaveniFlex Tissue MR Red kit on fixed mouse or human islets stimulated with vehicle or 100 nM exendin-4 for 10 minutes at 37 °C; antibody pairs against endogenous GLP-1R and VAPB or SPHKAP
# [4] = target: SNAP/FLAG-tagged human GLP-1R (human) (UniProt P43220); test: co-IP; anti-FLAG M2 magnetic beads, 1 hour at 4 °C, on lysates of INS-1 832/3 SNAP/FLAG-hGLP-1R or SNAP/FLAG-hGIPR cells treated with vehicle, 100 nM exendin-4 for 5 minutes (also a panel of GLP-1RAs; also with dominant negative dynamin 1/2 K44A) or 100 nM GIP; western blot
# [5] = target: endogenous GLP-1R (mouse islets) (mouse (endogenous in primary islets)) (UniProt O35659); test: proximity ligation; NaveniFlex Tissue MR Red kit on fixed mouse or human islets stimulated with vehicle or 100 nM exendin-4 for 10 minutes at 37 °C; antibody pairs against endogenous GLP-1R and VAPB or SPHKAP
substance,measurement,setting,value
endogenous SPHKAP (INS-1 832/3 cells) (from UniProt P0C6C0 1-1683),binding,[1],binds
Venus-VAPB (from UniProt O95292 1-243),binding,[2],binds
endogenous VAPB (human islets) (from UniProt O95292 1-243),binding,[3],binds
endogenous VAPB (INS-1 832/3 cells) (from UniProt Q9Z269 1-243),binding,[4],binds
endogenous VAPB (mouse islets) (from UniProt Q9QY76 1-243),binding,[5],binds
EGFP-VAPB (from UniProt O95292 1-243),binding,[4],binds

# Source: article PMC12696101
